# Data as given in PubChem BioAssay AID1347076 (National Center for Advancing Translational Sciences (NCATS), 2019).
# Several values for one entry are separate records, joined by “and”; a condition that tells them apart may be missing. Equal values may be shown once. Screen size: about 400,000 compounds; about 13,000 (3.2%) were called active. The inconclusive results got no clear call from the source; some entries with a clear call stand among them for comparison. Calls come from the whole dose curve; as a rule, active = well fitted cell-killing curve with a large enough effect; inconclusive = small, poorly fitted or top-dose-only effect, or effect the other way; inactive = flat fitted curve, though single readings scatter. Where the call is inconclusive, the potency comes from a doubtful curve fit.
# Assay: qHTS assay for MDR1-selective chemotherapeutics: Primary screen using the drug-selected MDR subline cells KB-V1; note: nearly all actives have a fitted effect of over 60% in size
# Settings: KB-V1 MDR cells viability, CellTiter-Glo, 72 h; activity change, negative = cytotoxicity: at 46.1 µM (top of the series)
# How it was run: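 Compound-treated KB-V1 multidrug-resistant cells, 72 h, 37 degrees C; viability by CellTiter-Glo. Fitted qHTS curves give the values.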
# % is set by controls: 0 for no effect and ±100 for the full control effect; potency is the fitted concentration of half-maximal effect.
Compound,Potency,"activity change, negative = cytotoxicity"
CCOc1ccc(Br)cc1/C(C)=N\NC1=NCCN1,"inconclusive: 5.17 µM [cytotoxic, full curve, poor fit]",–
O=C(c1ccccc1)N1N=C(c2ccccc2)CC1c1ccc2nccnc2c1 (configuration not stated),active: 7.31 µM,–
COc1ccc(-c2nnc(SCCC(=O)O)n2C)cc1OC,"inconclusive: 5.8 µM [rising, partial curve, poor fit]",–
Cc1nn(CCOc2ccccc2)c(=O)n1-c1ccccc1,"inconclusive: 20.6 µM [cytotoxic, single point]",–
CC1(c2cccc(Br)c2)NC(=O)N(CC(=O)Nc2ccc(F)cc2)C1=O (configuration not stated),"inconclusive: 20.6 µM [cytotoxic, single point]",–
CC1c2cc3c(cc2CCN1C(=O)c1cccc(F)c1)OCCCO3 (configuration not stated),"inconclusive: 32.6 µM [cytotoxic, single point]",–
C=CC[n+]1c(-c2ccc(OCC)cc2)csc1NNC(=O)Nc1ccccc1,active: 18.4 µM,–
COc1cccc(-c2nc3nc(C)cc(C)n3c2Nc2ccc3c(c2)OCCO3)c1,"inconclusive: 7.31 µM [cytotoxic, partial curve]",–
CC1CCN(S(=O)(=O)c2ccc(C(=O)Nc3nnc(C4=COCCO4)o3)cc2)CC1,"inconclusive: 16.4 µM [cytotoxic, single point]",–
COc1ccc(-c2nc3c4ccccc4ccn3c2Cc2ccc(C)cc2)cc1OC,"inconclusive: 29.1 µM [cytotoxic, single point]",–
Cc1cc(N(CCO)Cc2ccccc2)n2nc(-c3ccc(C(C)(C)C)cc3)nc2n1,inactive,–
Cc1nn(C)c(Oc2cccc(Cl)c2)c1C=O,"inconclusive: 20.6 µM [rising, single point]",–
CCN1C(=O)[C@@H]2Cc3c([nH]c4ccccc34)C(c3cc(OC)c(OC)c(OC)c3)N2C1=S (some centres not stated),"inconclusive: 29.1 µM [cytotoxic, single point]",–
CCCOc1ccc(C2NC(=S)NC(c3ccccc3)=C2C(=O)Nc2ccc(C)cc2)cc1OC (configuration not stated),inactive,–
COc1ccc(Cl)cc1NC(=O)C(C)N1Cc2ccccc2C1=O (configuration not stated),inactive,–
O=C(c1ccc(O)cc1)c1ccc(Cl)cc1,"inconclusive: 4.11 µM [rising, full curve, poor fit]",–
Cc1cc(C)nc(/N=C(\N)Nc2ccccc2-c2ccccc2)n1,"inconclusive: 16.4 µM [cytotoxic, partial curve]",–
O=C1c2ccccc2C(=O)N1Nc1ccccc1,inactive,–
CC(C)NC(=O)N(C)C[C@H]1OCCCC[C@H](C)Oc2ccc(NC(=O)NC3CCCCC3)cc2C(=O)N([C@H](C)CO)C[C@@H]1C,"inconclusive: 5.17 µM [rising, partial curve]",–
CCCC(CC)Sc1nc2c([nH]1)c(=S)n(C)c(=O)n2C (configuration not stated),active: 3.66 µM,–
CCn1c2ccccc2c2cc(/C=N/n3cn[nH]c3=S)ccc21,"inconclusive: 23.1 µM [cytotoxic, single point]",–
CC1CC(C)CN(S(=O)(=O)c2ccc(NC(=O)CN3CCCCCC3)cc2)C1 (configuration not stated),"inconclusive: 4.11 µM [cytotoxic, partial curve]",–
CCN1CCC(O)(C(C(=O)O)c2ccccc2)CC1 (configuration not stated),inactive,–
CN1C2C=C3C(C#N)=C(N)C(C#N)(C#N)[C@H](c4c(F)cccc4F)[C@H]3C1CC2 (some centres not stated),inactive,–

Compound,Potency,"activity change, negative = cytotoxicity"
Cc1ccc(NC(=O)c2ccco2)c(NC(=O)Cc2cccs2)c1,"inconclusive: 32.6 µM [cytotoxic, partial curve, poor fit]",–
O=C(Cn1c(SCc2cccc(F)c2)nc2ccncc21)Nc1ccc(Cl)cc1F,inactive,–
Cc1ccc(-c2[nH]c3ccccc3c2C(C[N+](=O)[O-])c2ccco2)cc1 (configuration not stated),active: 20.6 µM,–
CCN=C1S/C(=C\c2ccc(OCC)c(OC)c2)C(=O)N1CC,"inconclusive: 25.9 µM [cytotoxic, single point]",–
Cc1cn2c(=O)cc(COc3cccc(NC(=O)c4cccc(F)c4)c3)nc2s1,inactive,–
O=C1c2ccccc2C(Nc2ccc3c(c2)OCCO3)N1c1ccc(Cl)cn1 (configuration not stated),"inconclusive: 18.4 µM [cytotoxic, single point]",–
O=C(Cn1c(=O)oc2ccccc21)Nc1ccc2c(c1)OCCO2,inactive,–
Nc1nc(N=Nc2ccc(O)cc2)cc(=O)[nH]1,inactive,–
Cn1cc(/C=N/n2cnc3sc4c(c3c2=O)CCCC4)c2ccccc21,active: 20.6 µM,–
CCCCn1c(N)c(N(CCOC)C(=O)c2ccc(OCc3c(C)noc3C)cc2)c(=O)[nH]c1=O,"inconclusive: 29.1 µM [rising, partial curve, poor fit]",–
CCN(C(=O)CSc1nnc(-c2ccccc2OC)n1N)c1c(N)n(Cc2ccccc2)c(=O)[nH]c1=O,"inconclusive: 29.1 µM [rising, single point]",–
O=C(CCCCCN1C(=O)CCC1=O)Nc1ccc(Cl)c(C(F)(F)F)c1,active: 16.4 µM,–
CC1CC(NC(=O)c2c(O)nc3sccn3c2=O)CC(C)(C)C1 (configuration not stated),active: 18.4 µM,–
CCOc1cccc(SCc2noc(C(=O)NCC3CCCO3)c2C(=O)O)c1 (configuration not stated),"inconclusive: 29.1 µM [rising, single point]",–
C=CCn1c(SCC(=O)Nc2ccc(N3CCOCC3)cc2)nc2ccccc2c1=O,inactive,–
COC(=O)c1c[nH]c2c1-c1cc(C(=O)OCc3ccccc3)n(S(=O)(=O)c3ccc(C)cc3)c1C(=O)C2=O,active: 5.8 µM,–
CCCCNC(=S)N/N=C/c1ccc(C)s1,"inconclusive: 29.1 µM [cytotoxic, single point]",–
C=CCNc1ccccc1S(=O)(=O)NCc1ccccc1,inactive,–
Cc1nnc(SCCN2C(=O)c3ccccc3C2=O)[nH]c1=O,"inconclusive: 4.61 µM [rising, full curve]",–
COc1ccccc1NC(=O)c1ccc(C(=O)Nc2ccccc2OC)nc1,inactive,–
COc1ccc(C(=O)C2CCCN(C(=O)c3cccs3)C2)cc1F (configuration not stated),"inconclusive: 16.4 µM [cytotoxic, partial curve]",–
Cc1cc(C)cc(-n2ccnc2SCC(=O)c2c(N)n(C3CC3)c(=O)[nH]c2=O)c1,inactive,–
Cc1nc(SCC(=O)N2CCN(c3ccccc3)CC2)c2oc3ccccc3c2n1,active: 20.6 µM,–
CC(C)C[C@H]1CN(CCCC[C@@H]2CNC(=O)C(=O)N2CC2CCCCC2)C(=O)C(=O)N1CC1CCCCC1,"inconclusive: 29.1 µM [rising, single point]",–

# Looked up above:
# CCCC(CC)Sc1nc2c([nH]1)c(=S)n(C)c(=O)n2C (configuration not stated) | Potency: active: 3.66 µM
# COc1cccc(-c2nc3nc(C)cc(C)n3c2Nc2ccc3c(c2)OCCO3)c1 | Potency: inconclusive: 7.31 µM [cytotoxic, partial curve]
# CC1CCN(S(=O)(=O)c2ccc(C(=O)Nc3nnc(C4=COCCO4)o3)cc2)CC1 | Potency: inconclusive: 16.4 µM [cytotoxic, single point]

# (more compounds)

Compound,Potency,"activity change, negative = cytotoxicity"
CCCC(=O)Nc1cc(-c2cn3cccnc3n2)ccc1OC,inactive,–
CC(=O)Oc1ccccc1C(=O)NC(C)CCc1ccccc1 (configuration not stated),inactive,–
O=C(O)c1ccccc1C=NN=C1c2ccccc2-c2ccccc21,"inconclusive: 2.91 µM [cytotoxic, partial curve, poor fit]",–
COc1cccc(CNc2nc(NCc3cccs3)nc3ccsc23)c1,inactive,–
Cc1ccc2[nH]c(=O)c(-c3nc4ccccn4c3NCc3ccco3)cc2c1,active: 8.2 µM,–
CCOC(=O)c1cnc(SC)nc1N,–,inconclusive: 33.5%
COc1cc(-c2noc(C)c2-c2ccc(N(C)C)nc2)cc(OC)c1OC,active: 1.16 µM and active: 206 nM,–
Cc1ccc(Cl)cc1N1CCN(C(=O)Cn2nc(C)n3c(cc4sccc43)c2=O)CC1,inactive,–
COc1ccc(Cc2c(-c3ccc(F)cc3)nc3cc(C)c(Br)c(C)n23)c(C)c1,"inconclusive: 18.4 µM [cytotoxic, single point]",–
Cc1ccccc1NC(=S)N(CCN(C)C)C(C)c1ccccn1 (configuration not stated),active: 16.4 µM,–
COc1cc(C(=O)Nc2nnc(CC(C)(C)C)s2)c([N+](=O)[O-])cc1OC,active: 20.6 µM,–
CCCCCC1C(C(=O)OCC)C(=O)NC1(C(=O)OCC)C(=O)OCC (configuration not stated),"inconclusive: 29.1 µM [cytotoxic, single point]",–
Cc1cc(NC(=O)c2ccc(Cl)cc2)n(CCOC(=O)c2ccc(Cl)cc2)n1,"inconclusive: 3.66 µM [cytotoxic, full curve, poor fit]",–
CCOC(=O)c1c(-c2ccccc2)csc1NC(=O)c1cc(-c2cccc(OC)c2)on1,inactive,–
Cc1ccc(OCC(=O)NNC(=O)c2ccc(F)c(S(=O)(=O)N3CCOCC3)c2)cc1C,"inconclusive: 25.9 µM [rising, partial curve, poor fit]",–
CN(C)c1ccc(/C=N/NC(=O)CN(c2ccccc2Cl)S(C)(=O)=O)cc1Br,inactive,–
COc1ccc2cc3c(N)nn(C(=O)C4CCC(C(C)(C)C)CC4)c3nc2c1 (configuration not stated),"inconclusive: 32.6 µM [cytotoxic, single point]",–
Cc1cccc(NC(=O)CNC(=O)Cn2ncc(Cl)c(Cl)c2=O)c1C,"inconclusive: 20.6 µM [cytotoxic, single point]",–
CN(C(=S)NCCN1CCOCC1)C(c1ccccc1)c1ccccc1,"inconclusive: 29.1 µM [cytotoxic, single point]",–
CC1(CCc2ccccc2)NC(=O)N(Cc2nnc(-c3ccccc3Br)o2)C1=O (configuration not stated),"inconclusive: 8.2 µM [cytotoxic, partial curve]",–
Cc1c(C(=O)NCCSCc2c(F)cccc2Cl)cnn1-c1ccc(Cl)cc1,"inconclusive: 13 µM [cytotoxic, partial curve]",–
COc1ccc(N2CCN(C(CNC(=O)C(=O)NCCCn3ccnc3)c3cccnc3)CC2)cc1 (configuration not stated),"inconclusive: 29.1 µM [rising, single point]",–
OCCN(CC#CC(O)(c1ccccc1)C1CCCCC1)CCO (configuration not stated),"inconclusive: 29.1 µM [rising, single point]",–
Cc1ccc(Nc2nnc(SCn3nnc4ccccc4c3=O)s2)cc1,"inconclusive: 18.4 µM [cytotoxic, single point]",–
